# Values from PubChem BioAssay AID686937 (Drosophila RNAi Screening Center, 2013).
# Screen: 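Genes in the fly needed for secretion of protein constitutively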 (primary screen)
# Cell system: Drosophila S2 cells expressing secreted horseradish peroxidase
# Reagent: long dsRNA against Drosophila genes
# Duration: about 5.5 days (5 days dsRNA, then 12 h reporter induction)
# Treatment: reporter expression induced after 5 days of dsRNA, read 12 h later; inducer not stated
# Measured: 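Chemiluminescent measurement of peroxidase in the medium 12 h after reporter induction, following 5 days of dsRNA, given as a z-score per plate; higher means more secretion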
# Direction: z-score: higher = more reporter secreted into medium
# The deposit covers about 23,000 reagents; this is a random part of those that have a named target and a result. 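Reduced-secretion tags in replicate 1 do not always agree with the z-scores; no criterion for assigning the tags was given.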 The numbers tell different reagents against one gene apart. Names joined by + are all predicted targets of the reagent. Not all columns of the deposit are shown. The record does not give: the amount of reagent.
gene,dsRNA no.,"z-score, replicate 1"
CG30288 (GeneID 246531),1,-0.18
Diap2 (GeneID 36748),1,0.32
CG6195 (GeneID 42343),1,0.39
CG13607 (GeneID 42859),1,0.47
Stt3A (GeneID 33082),1,-0.13
PolI (GeneID 40965),1,0.33
kud (GeneID 39882),1,-0.38
Obp50b + Obp50c,1,-0.26
CG11380 (GeneID 31065),1,-0.24
Tret1-2 (GeneID 36249),1,0.2
SmydA-9 (GeneID 31859),1,0.18
CG9312 (GeneID 41686),1,0.39
CG14669 (GeneID 40652),1,-4.26
CG14669 (GeneID 40652),2,0.31
CG14669 (GeneID 40652),3,0.73
CG14669 (GeneID 40652),4,-0.24
CG13501 (GeneID 37510),1,0.2
gus (GeneID 35478),1,0.28
gus (GeneID 35478),2,0.36
CG5708 (GeneID 34361),1,-0.39
tsu (GeneID 35924),1,0.23
CG15814 (GeneID 32765),1,0.14
CG31517 (GeneID 251711),1,0.29
PPP1R15 (GeneID 37820),1,-0.44
Tsp47F (GeneID 36230),1,-0.82
CG18540 (GeneID 37097),1,-0.06
Spn (GeneID 46194),1,0.36
Spn (GeneID 46194),2,0.36
Spn (GeneID 46194),3,0.23
CG10232 (GeneID 42800),1,0.32
GstD5 (GeneID 48338),1,0.25
zormin (GeneID 2769001),1,0.84
zormin (GeneID 2769001),2,0.24
zormin (GeneID 2769001),3,0.23
zormin (GeneID 2769001),4,0.28
zormin (GeneID 2769001),5,0.3
zormin (GeneID 2769001),6,0.04
zormin (GeneID 2769001),7,-0.16
eIF3g1 (GeneID 31243),1,-2.88
Jon99Ciii (GeneID 43543),1,-2.75
CG42404 (GeneID 41842),1,0.14
Blm (GeneID 41366),1,-0.09
CG10337 (GeneID 35247),1,0.33
Dic3 (GeneID 35763),1,0.43
Sec8 (GeneID 40712),1,0.23
mRpL36 (GeneID 59151),1,-0.14
His1:CG33816 + His1:CG33828 + His1:CG33819 + 21 more,1,-0.95
CG8372 (GeneID 34121),1,0.46
AOX1 (GeneID 41894),1,0.19
CG15873 (GeneID 37898),1,0.08
TTLL1A (GeneID 32704),1,0.19
IP3K2 (GeneID 32285),1,-0.06
IP3K2 (GeneID 32285),2,0.38
IP3K2 (GeneID 32285),3,0.29
psd (GeneID 33830),1,0.09
CG9926 (GeneID 41700),1,-0.35
mTerf3 (GeneID 40279),1,0.24
CG10904 (GeneID 37817),1,0.42
CG1750 (GeneID 43699),1,0.6
CG13005 (GeneID 32670),1,0.17
CG13196 (GeneID 36250),1,0.26
CG8675 (GeneID 32716),1,0.15
E(spl)m2-BFM (GeneID 43155),1,-1.33
hiro (GeneID 38083),1,-0.04
stwl (GeneID 39581),1,0.39
Hsp83 (GeneID 38389),1,-0.16
dia (GeneID 35340),1,-0.2
Pfdn6 (GeneID 40176),1,0.03
mfrn (GeneID 43353),1,0.06
CG3078 (GeneID 31211),1,-0.49
ms(3)76Ba (GeneID 40109),1,0.23
CG5934 (GeneID 43289),1,0.13
Mic26-27 (GeneID 41959),1,0.27
Doc1 (GeneID 39039),1,0.56
CG17834 (GeneID 34191),1,-0.85
wgn (GeneID 32849),1,-0.13
Atg10 + CG18853 + CG12822,1,1.22
CG34015 (GeneID 3885570),1,0.43
Tsen34 (GeneID 2768977),1,0.15
vis + achi,1,0.3
ppk30 (GeneID 43487),1,0.26
Nup35 (GeneID 32851),1,0.1
